Measurements reported in the supplement of paper PMC10849652.
The list shows a part of the results.

The chains behind the UniProt entries cited, without tags or fusion partners. Where a name states a change or a piece, a line headed by the entry shows the natural chain unless it says otherwise.
UniProt Q9NQ48: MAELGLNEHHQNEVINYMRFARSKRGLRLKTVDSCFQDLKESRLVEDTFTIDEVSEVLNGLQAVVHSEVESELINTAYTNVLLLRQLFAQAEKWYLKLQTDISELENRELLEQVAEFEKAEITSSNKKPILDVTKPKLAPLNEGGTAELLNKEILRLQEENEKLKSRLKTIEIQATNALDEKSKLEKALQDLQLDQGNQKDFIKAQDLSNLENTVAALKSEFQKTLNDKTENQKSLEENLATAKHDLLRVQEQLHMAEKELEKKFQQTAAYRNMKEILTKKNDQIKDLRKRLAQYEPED
UniProt Q15691: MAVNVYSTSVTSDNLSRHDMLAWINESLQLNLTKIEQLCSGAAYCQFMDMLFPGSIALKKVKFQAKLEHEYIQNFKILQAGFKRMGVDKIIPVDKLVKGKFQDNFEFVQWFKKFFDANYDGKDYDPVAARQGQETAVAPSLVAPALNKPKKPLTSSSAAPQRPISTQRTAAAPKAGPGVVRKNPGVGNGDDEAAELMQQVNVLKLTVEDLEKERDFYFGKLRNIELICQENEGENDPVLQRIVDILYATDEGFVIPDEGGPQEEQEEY
UniProt P46821: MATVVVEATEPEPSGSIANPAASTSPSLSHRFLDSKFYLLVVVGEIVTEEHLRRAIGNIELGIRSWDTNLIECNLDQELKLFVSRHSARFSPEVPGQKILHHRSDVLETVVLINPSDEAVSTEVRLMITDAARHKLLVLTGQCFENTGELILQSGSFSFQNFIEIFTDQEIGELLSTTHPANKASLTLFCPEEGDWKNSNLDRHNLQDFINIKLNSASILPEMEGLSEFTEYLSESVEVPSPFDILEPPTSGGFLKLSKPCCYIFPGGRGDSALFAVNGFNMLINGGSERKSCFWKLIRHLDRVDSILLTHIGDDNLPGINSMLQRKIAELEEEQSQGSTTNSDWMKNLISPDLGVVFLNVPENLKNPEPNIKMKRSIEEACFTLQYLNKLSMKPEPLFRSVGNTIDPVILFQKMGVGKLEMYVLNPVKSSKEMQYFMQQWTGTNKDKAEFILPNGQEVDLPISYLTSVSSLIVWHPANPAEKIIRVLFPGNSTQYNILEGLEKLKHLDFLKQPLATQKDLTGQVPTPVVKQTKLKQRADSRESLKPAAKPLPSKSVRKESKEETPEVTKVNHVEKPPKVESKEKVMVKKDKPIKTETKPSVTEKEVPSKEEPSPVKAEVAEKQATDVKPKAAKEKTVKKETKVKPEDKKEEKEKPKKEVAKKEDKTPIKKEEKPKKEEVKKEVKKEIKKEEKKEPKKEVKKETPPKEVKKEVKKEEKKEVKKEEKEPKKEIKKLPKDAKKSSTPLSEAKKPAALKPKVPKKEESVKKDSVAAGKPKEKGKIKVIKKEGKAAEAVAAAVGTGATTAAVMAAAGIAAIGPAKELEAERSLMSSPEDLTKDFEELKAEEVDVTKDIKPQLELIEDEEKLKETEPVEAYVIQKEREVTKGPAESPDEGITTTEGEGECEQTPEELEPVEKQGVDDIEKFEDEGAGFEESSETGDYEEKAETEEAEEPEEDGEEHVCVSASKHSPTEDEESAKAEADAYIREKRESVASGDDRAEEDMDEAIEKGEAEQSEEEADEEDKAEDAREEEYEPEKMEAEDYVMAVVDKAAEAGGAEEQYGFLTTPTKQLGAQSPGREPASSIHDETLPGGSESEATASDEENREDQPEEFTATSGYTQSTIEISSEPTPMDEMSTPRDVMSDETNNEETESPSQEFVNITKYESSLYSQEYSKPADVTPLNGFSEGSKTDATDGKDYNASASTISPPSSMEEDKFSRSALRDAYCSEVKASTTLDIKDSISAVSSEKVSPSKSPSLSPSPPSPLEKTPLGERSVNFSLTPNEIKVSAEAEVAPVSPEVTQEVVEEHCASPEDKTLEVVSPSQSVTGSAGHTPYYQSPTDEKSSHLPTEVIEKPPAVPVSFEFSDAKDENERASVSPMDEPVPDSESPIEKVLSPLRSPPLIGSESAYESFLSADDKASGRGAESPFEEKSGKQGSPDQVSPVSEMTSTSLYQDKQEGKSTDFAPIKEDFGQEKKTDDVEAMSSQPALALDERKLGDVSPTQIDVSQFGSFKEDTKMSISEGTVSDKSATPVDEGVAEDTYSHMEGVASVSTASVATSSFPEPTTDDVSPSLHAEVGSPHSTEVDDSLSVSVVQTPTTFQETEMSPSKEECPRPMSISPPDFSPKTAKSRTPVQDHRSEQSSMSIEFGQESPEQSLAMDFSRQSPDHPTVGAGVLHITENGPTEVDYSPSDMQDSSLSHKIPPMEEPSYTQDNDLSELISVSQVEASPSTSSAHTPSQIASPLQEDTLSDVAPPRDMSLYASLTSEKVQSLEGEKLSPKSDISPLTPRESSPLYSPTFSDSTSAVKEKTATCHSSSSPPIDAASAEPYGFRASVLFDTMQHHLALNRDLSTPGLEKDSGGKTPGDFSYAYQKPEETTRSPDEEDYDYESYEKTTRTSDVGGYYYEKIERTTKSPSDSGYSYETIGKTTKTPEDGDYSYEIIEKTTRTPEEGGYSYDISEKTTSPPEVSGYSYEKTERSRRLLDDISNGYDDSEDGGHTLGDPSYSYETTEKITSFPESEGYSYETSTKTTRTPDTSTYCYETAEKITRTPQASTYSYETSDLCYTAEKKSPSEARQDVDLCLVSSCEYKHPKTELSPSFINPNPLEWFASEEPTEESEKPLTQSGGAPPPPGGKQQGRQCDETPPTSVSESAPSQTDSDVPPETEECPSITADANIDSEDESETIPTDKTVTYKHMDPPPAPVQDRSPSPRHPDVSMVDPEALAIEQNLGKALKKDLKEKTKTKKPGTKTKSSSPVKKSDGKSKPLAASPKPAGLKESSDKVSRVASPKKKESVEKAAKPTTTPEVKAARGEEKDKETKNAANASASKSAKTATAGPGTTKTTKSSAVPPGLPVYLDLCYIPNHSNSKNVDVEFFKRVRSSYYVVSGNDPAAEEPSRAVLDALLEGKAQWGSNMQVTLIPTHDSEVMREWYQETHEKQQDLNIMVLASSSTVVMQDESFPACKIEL
UniProt O15116: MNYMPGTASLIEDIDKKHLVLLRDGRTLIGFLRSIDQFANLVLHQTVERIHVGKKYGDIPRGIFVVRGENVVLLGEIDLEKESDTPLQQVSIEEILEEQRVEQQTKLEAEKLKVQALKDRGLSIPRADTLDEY
UniProt Q8WVR3: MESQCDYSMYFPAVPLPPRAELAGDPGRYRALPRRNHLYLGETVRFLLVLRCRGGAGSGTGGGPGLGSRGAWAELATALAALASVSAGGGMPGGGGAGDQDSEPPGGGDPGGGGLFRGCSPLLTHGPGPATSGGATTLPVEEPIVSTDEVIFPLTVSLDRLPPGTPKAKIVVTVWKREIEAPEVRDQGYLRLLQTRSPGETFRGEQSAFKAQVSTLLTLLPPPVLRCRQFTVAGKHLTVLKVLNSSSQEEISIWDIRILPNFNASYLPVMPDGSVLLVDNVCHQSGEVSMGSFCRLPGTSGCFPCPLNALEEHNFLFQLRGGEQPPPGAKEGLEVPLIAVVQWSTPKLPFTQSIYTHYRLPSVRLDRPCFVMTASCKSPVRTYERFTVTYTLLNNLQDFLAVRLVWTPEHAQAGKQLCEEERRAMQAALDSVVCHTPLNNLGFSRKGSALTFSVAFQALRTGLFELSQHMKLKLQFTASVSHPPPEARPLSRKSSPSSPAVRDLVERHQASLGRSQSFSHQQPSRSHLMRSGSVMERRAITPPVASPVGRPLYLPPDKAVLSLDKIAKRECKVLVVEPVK
UniProt O95819: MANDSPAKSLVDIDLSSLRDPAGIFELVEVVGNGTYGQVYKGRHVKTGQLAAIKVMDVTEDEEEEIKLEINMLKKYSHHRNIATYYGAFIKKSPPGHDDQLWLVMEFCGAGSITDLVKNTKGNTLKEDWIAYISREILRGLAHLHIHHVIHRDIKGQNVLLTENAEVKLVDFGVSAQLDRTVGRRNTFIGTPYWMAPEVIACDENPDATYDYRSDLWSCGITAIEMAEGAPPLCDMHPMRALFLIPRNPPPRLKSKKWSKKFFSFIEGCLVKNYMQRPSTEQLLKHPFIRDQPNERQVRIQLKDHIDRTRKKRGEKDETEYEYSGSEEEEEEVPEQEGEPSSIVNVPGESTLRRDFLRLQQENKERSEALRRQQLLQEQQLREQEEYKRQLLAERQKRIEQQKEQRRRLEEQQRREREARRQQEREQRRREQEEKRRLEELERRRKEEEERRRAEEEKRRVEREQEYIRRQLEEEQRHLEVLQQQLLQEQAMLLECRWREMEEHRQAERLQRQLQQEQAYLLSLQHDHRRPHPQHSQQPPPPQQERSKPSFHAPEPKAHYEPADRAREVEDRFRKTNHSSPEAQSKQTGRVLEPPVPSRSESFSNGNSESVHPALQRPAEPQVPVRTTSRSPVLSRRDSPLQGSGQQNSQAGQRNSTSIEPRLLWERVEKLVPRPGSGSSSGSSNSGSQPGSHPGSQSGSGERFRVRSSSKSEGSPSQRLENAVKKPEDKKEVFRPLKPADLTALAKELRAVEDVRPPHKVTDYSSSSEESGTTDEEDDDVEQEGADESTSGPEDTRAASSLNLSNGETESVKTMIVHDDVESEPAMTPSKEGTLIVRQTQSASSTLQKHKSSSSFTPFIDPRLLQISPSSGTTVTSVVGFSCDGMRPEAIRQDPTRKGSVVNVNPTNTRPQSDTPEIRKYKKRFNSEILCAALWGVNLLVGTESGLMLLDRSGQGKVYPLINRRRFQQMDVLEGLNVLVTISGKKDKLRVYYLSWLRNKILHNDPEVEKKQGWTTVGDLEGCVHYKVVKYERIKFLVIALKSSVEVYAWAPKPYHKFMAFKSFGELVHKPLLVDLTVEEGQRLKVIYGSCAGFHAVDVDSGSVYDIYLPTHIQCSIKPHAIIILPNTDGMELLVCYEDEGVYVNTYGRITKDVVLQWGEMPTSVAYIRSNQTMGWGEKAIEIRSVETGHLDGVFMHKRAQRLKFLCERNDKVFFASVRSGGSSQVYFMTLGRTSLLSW
UniProt Q9UI95, whole entry, looked up: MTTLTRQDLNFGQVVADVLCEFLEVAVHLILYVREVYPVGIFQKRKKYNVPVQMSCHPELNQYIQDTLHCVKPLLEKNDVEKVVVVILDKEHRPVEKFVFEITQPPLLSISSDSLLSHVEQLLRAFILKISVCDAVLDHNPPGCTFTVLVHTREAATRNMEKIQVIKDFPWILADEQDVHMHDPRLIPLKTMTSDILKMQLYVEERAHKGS
UniProt P07948: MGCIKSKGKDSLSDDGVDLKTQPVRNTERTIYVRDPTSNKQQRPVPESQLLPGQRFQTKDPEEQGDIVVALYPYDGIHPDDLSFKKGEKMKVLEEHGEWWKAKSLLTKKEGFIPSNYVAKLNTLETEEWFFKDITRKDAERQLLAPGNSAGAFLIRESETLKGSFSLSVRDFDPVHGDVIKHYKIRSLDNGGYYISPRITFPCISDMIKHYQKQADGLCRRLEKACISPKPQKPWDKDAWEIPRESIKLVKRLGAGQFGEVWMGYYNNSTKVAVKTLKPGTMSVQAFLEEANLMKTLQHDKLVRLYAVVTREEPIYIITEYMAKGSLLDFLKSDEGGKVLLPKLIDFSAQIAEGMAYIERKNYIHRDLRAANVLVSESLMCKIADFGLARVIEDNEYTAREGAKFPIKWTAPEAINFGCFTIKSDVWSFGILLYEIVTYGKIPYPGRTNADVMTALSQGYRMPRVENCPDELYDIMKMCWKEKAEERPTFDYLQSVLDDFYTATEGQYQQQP
UniProt Q7L1W4: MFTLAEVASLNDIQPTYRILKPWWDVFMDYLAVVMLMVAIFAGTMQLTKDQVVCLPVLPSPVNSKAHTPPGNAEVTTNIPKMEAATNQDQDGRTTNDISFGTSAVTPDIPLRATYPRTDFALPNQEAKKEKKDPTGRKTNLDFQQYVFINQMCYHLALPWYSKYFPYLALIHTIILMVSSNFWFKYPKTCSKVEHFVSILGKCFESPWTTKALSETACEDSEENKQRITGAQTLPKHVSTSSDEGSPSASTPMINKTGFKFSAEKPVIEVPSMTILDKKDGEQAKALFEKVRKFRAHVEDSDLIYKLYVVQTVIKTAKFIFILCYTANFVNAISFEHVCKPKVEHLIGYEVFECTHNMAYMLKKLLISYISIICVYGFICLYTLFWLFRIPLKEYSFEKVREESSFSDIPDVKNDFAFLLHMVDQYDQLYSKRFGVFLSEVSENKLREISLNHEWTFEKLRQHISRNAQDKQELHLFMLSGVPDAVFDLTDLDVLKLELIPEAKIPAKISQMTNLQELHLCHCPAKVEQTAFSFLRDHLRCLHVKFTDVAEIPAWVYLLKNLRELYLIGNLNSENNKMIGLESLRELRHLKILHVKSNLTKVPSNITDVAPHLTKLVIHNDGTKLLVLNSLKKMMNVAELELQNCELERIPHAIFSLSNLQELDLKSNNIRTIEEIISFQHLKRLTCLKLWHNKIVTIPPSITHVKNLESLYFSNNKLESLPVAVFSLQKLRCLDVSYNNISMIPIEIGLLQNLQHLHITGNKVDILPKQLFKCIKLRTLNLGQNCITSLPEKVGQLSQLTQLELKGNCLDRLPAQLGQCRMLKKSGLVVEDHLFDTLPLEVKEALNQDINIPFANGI

Experiments:
Assay in all cases: log2 fold change, soluble protein after heating vs DMSO (PISA); higher = thermal stabilisation; K562 cells, 10 uM, 30 min; active = over 0.2 and 3.5 SD of the protein, either way, in both replicates (recomputed)
[1] = compound: NC(=O)Nc1cc(-c2cccc(F)c2)sc1C(=O)N[C@H]1CCCNC1
Outline: (§1)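 Quantification of soluble protein used TMTpro 16plex LC-MS/MS, with channel sums equalised. Samples were the supernatant after 21,000xg for 90 min of pooled aliquots from K562 cells (2×10^6 cells/mL) treated with 10 μM compound for 30 min, heated for 3 min over 48°C-58°C, and extracted in PBS with 0.5% NP-40 at 4°C. Values, from duplicates, describe thermal stability against control samples on a log2 fold-change scale.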

[2] = compound: NC(=O)c1cnc(N[C@@H]2CCCC[C@@H]2N)nc1Nc1cccc(-n2nccn2)c1
Outline: as §1

[3] = compound: NC1(c2ccc(-c3nc4ccn5c(=O)[nH]nc5c4cc3-c3ccccc3)cc2)CCC1
Outline: as §1

[4] = compound: NCC(=O)Nc1ccc(-n2nc(C(F)(F)F)cc2-c2ccc3c(ccc4ccccc43)c2)cc1
Outline: as §1

entinostat = compound: Nc1ccccc1NC(=O)c1ccc(CNC(=O)OCc2cccnc2)cc1 [entinostat]
Outline: as §1

vorinostat = compound: O=C(CCCCCCC(=O)Nc1ccccc1)NO [vorinostat]
Outline: as §1

citarinostat = compound: O=C(CCCCCCNC(=O)c1cnc(N(c2ccccc2)c2ccccc2Cl)nc1)NO [citarinostat]
Outline: as §1

silmitasertib = compound: O=C(O)c1ccc2c(c1)nc(Nc1cccc(Cl)c1)c1ccncc12 [silmitasertib]
Outline: as §1

[5] = compound: O=C1NC(=O)C(c2cnc3ccccn23)=C1c1cn2c3c(cc(F)cc13)CN(C(=O)N1CCCCC1)CC2
Outline: as §1

[6] = compound: c1cc(OCCN2CCCCC2)cc(-c2n[nH]c3ccc(-c4nnc[nH]4)cc23)c1
Outline: as §1

entospletinib = compound: c1cn2cc(-c3ccc4cn[nH]c4c3)nc(Nc3ccc(N4CCOCC4)cc3)c2n1 [entospletinib]
Outline: as §1

Measured: log2 fold change

MAPK6 (UniProt Q16659)
inactive: [1] -0.045 | [2] 0.03 | [3] -0.003 | [4] -0.254 | entinostat -0.033 | vorinostat -0.032 | citarinostat -0.178 | silmitasertib -0.144 | [5] -0.065 | [6] 0.036 | entospletinib 0.069

LZTFL1 (UniProt Q9NQ48)
inactive: [1] 0.029 | [2] -0.036 | [3] -0.1 | [4] -0.026 | entinostat 0.01 | vorinostat 0.055 | citarinostat 0.03 | silmitasertib -0.01 | [5] 0 | [6] -0.068 | entospletinib 0.023

LSM14B (UniProt Q9BX40)
inactive: [1] 0.028 | [2] -0.008 | [3] 0.015 | [4] -0.137 | entinostat 0.024 | vorinostat 0.13 | citarinostat 0.042 | silmitasertib -0.027 | [5] 0.171 | [6] -0.047 | entospletinib 0.079

MAN1A2 (UniProt O60476)
inactive: [1] 0.036 | [2] 0.013 | [3] -0.082 | [4] -0.065 | entinostat 0.009 | vorinostat -0.007 | citarinostat 0.012 | silmitasertib 0.02 | [5] -0.051 | [6] -0.047 | entospletinib 0.033

MAGEC1 (UniProt O60732)
inactive: [1] 0.091 | [2] -0.031 | [3] -0.025 | [4] 0.027 | entinostat 0.117 | vorinostat 0.002 | citarinostat 0.095 | silmitasertib 0.127 | [5] 0.206 | [6] -0.074 | entospletinib 0.191

LZIC isoform 2 (UniProt Q8WZA0)
inactive: [1] -0.038 | [2] -0.009 | [3] -0.034 | [4] 0.006 | entinostat -0.061 | vorinostat -0.038 | citarinostat 0 | silmitasertib -0.048 | [5] -0.04 | [6] 0.007 | entospletinib 0.019

MAPRE1 (UniProt Q15691)
inactive: [1] 0.003 | [2] -0.062 | [3] -0.112 | [4] -0.046 | entinostat 0.014 | vorinostat -0.003 | citarinostat 0.044 | silmitasertib -0.038 | [5] -0.069 | [6] 0.014 | entospletinib -0.014

MAP2K4 isoform 2 (UniProt P45985)
inactive: [1] 0.011 | [2] 0.015 | [3] -0.118 | [4] -0.04 | entinostat -0.01 | vorinostat 0.062 | citarinostat -0.015 | silmitasertib 0 | [5] -0.057 | [6] -0.035 | entospletinib 0.056

MAEA (UniProt Q7L5Y9)
inactive: [1] -0.021 | [2] -0.024 | [3] -0.086 | [4] 0.013 | entinostat 0.056 | vorinostat -0.003 | citarinostat 0.038 | silmitasertib 0.047 | [5] 0.036 | [6] -0.058 | entospletinib -0.037

MAP1B (UniProt P46821)
inactive: [1] 0.022 | [2] 0.008 | [3] 0.049 | [4] 0.032 | entinostat -0.054 | vorinostat -0.034 | citarinostat -0.025 | silmitasertib 0.018 | [5] 0.007 | [6] -0.059 | entospletinib 0.017

MAK16 (UniProt Q9BXY0)
inactive: [1] 0.112 | [2] -0.06 | [3] 0.029 | [4] 0.125 | entinostat -0.004 | vorinostat -0.068 | citarinostat 0.038 | silmitasertib 0.107 | [5] 0.204 | [6] -0.039 | entospletinib 0.005

MAGT1 (UniProt Q9H0U3)
inactive: [1] -0.09 | [2] -0.063 | [3] -0.024 | [4] 0.017 | entinostat -0.005 | vorinostat 0.008 | citarinostat -0.027 | silmitasertib 0.038 | [5] -0.021 | [6] -0.061 | entospletinib 0.006

MAN2A1 (UniProt Q16706)
inactive: [1] 0.03 | [2] -0.005 | [3] -0.046 | [4] -0.002 | entinostat -0.015 | vorinostat -0.033 | citarinostat -0.034 | silmitasertib -0.028 | [5] -0.002 | [6] -0.022 | entospletinib 0.046

LSM1 (UniProt O15116)
inactive: [1] 0.046 | [2] -0.016 | [3] 0.017 | [4] 0.01 | entinostat -0.058 | vorinostat -0.012 | citarinostat -0.045 | silmitasertib -0.033 | [5] -0.073 | [6] -0.033 | entospletinib -0.018

LUZP1 (UniProt Q86V48)
inactive: [1] 0.055 | [2] 0.089 | [3] 0.087 | [4] 0.058 | entinostat -0.081 | vorinostat -0.119 | silmitasertib 0.114 | [5] 0.084

MAP11 (UniProt Q8WVR3)
inactive: [1] -0.039 | [3] -0.169 | [4] 0.024 | entinostat 0.004 | vorinostat 0.135 | citarinostat -0.018 | silmitasertib 0 | [5] 0.04 | [6] -0.061 | entospletinib 0.05

LYL1 (UniProt P12980)
inactive: [1] 0.143 | [2] -0.029 | [3] 0.007 | [4] 0.319 | entinostat -0.122 | citarinostat -0.257 | silmitasertib 0.092 | [5] -0.457 | [6] 0.106 | entospletinib -0.171

LTBP4 (UniProt Q8N2S1)
inactive: [1] -0.011 | [2] -0.075 | [3] -0.314 | entinostat -0.064 | vorinostat -0.015 | citarinostat -0.058 | silmitasertib -0.005 | [5] -0.109 | [6] -0.028 | entospletinib 0.147

MAP1S (UniProt Q66K74)
inactive: [1] -0.025 | [2] 0.031 | [3] -0.045 | [4] 0.006 | entinostat -0.016 | vorinostat 0.013 | citarinostat 0.077 | silmitasertib -0.036 | [5] -0.007 | [6] -0.025 | entospletinib -0.026

MAP3K10 (UniProt Q02779)
inactive: [1] 0.037 | [2] -0.048 | [4] 0.014 | entinostat -0.02 | vorinostat -0.096

MAP4K4 isoform 3 (UniProt O95819)
inactive: [1] -0.199 | [2] -0.154 | [3] -0.204 | [4] -0.013 | entinostat 0.07 | vorinostat 0.075 | citarinostat 0.044 | silmitasertib -0.024 | [6] -0.179

LUM (UniProt P51884)
inactive: [1] -0.067 | [2] -0.108 | [4] -0.002 | entinostat -0.033 | citarinostat -0.042 | [5] 0.185 | [6] 0.47

MAD2L2 (UniProt Q9UI95)
inactive: [1] 0.148 | [2] -0.032 | entinostat 0.044 | vorinostat 0.168 | citarinostat 0.083 | [5] -0.027 | [6] -0.165 | entospletinib 0.078

MAP3K20 isoform 2 (UniProt Q9NYL2)
inactive: [1] 0.09 | [2] -0.041 | [3] 0.099 | entinostat 0.056 | silmitasertib 0.009 | [5] -0.008

LYN isoform 2 (UniProt P07948)
inactive: [1] 0.162 | [2] 0.014 | [4] -0.073 | entinostat -0.155 | [5] 0.082

MAN2B2 (UniProt Q9Y2E5)
inactive: [1] 0.063 | [2] -0.099 | [3] -0.262 | [4] 0.089 | entinostat -0.018 | citarinostat 0.089 | silmitasertib -0.029 | [5] -0.058 | [6] -0.005

M6PR (UniProt P20645)
inactive: [1] -0.057 | [2] 0.132 | [3] 0.023 | [4] 0.056 | entinostat 0.013 | vorinostat -0.027 | citarinostat -0.078 | silmitasertib -0.006 | [5] -0.007 | [6] 0.041 | entospletinib 0.01

MAPT isoform 9 (UniProt P10636)
inactive: [1] 0.167 | [2] -0.034 | [4] 0.037 | entinostat -0.226

LRRC8D (UniProt Q7L1W4)
inactive: [1] -0.032 | [2] 0 | [3] -0.07 | [4] -0.067 | entinostat 0.123 | citarinostat -0.06 | silmitasertib 0.038 | [5] 0.273 | [6] -0.239 | entospletinib 0.167

LRRC8C (UniProt Q8TDW0)
inactive: [1] 0.062 | [2] -0.063 | [3] 0.272 | entinostat -0.136 | vorinostat 0.249 | citarinostat -0.331 | silmitasertib 0.084 | [5] 0.416 | [6] -0.106 | entospletinib -0.074

Retrieved one by one from the list above (2):
M6PR (UniProt P20645)
inactive: [1] -0.057 | [2] 0.132 | [3] 0.023 | [4] 0.056 | entinostat 0.013 | vorinostat -0.027 | citarinostat -0.078 | silmitasertib -0.006 | [5] -0.007 | [6] 0.041 | entospletinib 0.01

MAN2B2 (UniProt Q9Y2E5)
inactive: [1] 0.063 | [2] -0.099 | [3] -0.262 | [4] 0.089 | entinostat -0.018 | citarinostat 0.089 | silmitasertib -0.029 | [5] -0.058 | [6] -0.005

Going on with the list.

LRWD1 (UniProt Q9UFC0)
inactive: [1] 0.032 | [2] 0.094 | [3] -0.144 | [4] 0.163 | entinostat 0.255 | citarinostat 0.278 | silmitasertib 0.043 | [5] 0.024 | [6] -0.15 | entospletinib -0.036
